Assay results published in US20050187179A1, “Apoptosis inducing agents and methods” (The Government of the United States of America as …, priority 1998, published 2005).
At least one compound was matched to its structure with a doubt left.

Test system: Notch-1
Assay: Notch-1 protein in neuroblastoma and medulloblastoma cell lines with or without retinoic acid (western blot)
Format: cell-based, human
Conditions: 1×10^−6 M RA, SY5Y, DAOY, NGP cell lines

## CC1=C(/C=C/C(C)=C/C=C/C(C)=C/C(=O)O)C(C)(C)CCC1 [RA, retinoic acid]
  effect on level of Notch-1 expression: increases the level of Notch-1 expression
